According to PubChem BioAssay AID445 (National Center for Advancing Translational Sciences (NCATS), 2006):
Some of the results follow. These are further read-outs of the screen, such as a control signal, another cell line or another target. No call is given for them. The list favours compounds with an active or inconclusive main result. Words in brackets tell the shape of the fitted curve; partial curves, single points and poor fits give uncertain potencies.

Assay: IkB Signaling
Details: ABC-DLBCL IkBa-CBG/CBR dual luciferase ratio (green luciferase fused to IkBa over red control in OCI-Ly3 lymphoma cells), 4 h; measured here: control luc red channel unless noted
Procedure, shortened: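 Curves were fitted separately to fusion (green), unfused (red) and ratio luminescence, then classed by r2, magnitude and activity. Cells: OCI-Ly3, 4 h compound plus doxycycline at 37C; 10 uM MG-132 defined full response.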

SMILES	AC50
Cc1cccc(CSc2nc(-c3cccs3)ccc2C#N)c1	0.0631 µM [rising, full curve, poor fit]
Cc1ccc(NC(=O)CSc2nncn3c2cc2sccc23)cc1F	10 µM [falling, partial curve]
Cc1nn(-c2ccc(N3CCCC3)nn2)c(C)c1CCC(=O)Nc1ccccc1	20 µM [falling, partial curve]
CCCCOC(=O)c1ccc(NC2=NS(=O)(=O)c3ccccc32)cc1	2.51 µM [falling, partial curve]
Cc1ccc(-c2nc3n(n2)C(=O)CC(c2ccc(C)cc2)S3)cc1 (stereo unspecified)	31.6 µM [falling, single point]
COc1cccc(-c2ccc3c(N)c(C(=O)c4ccc(F)cc4)sc3n2)c1	10 µM [falling, partial curve]
Oc1ccccc1-c1cc(C(F)(F)C(F)F)[nH]n1	10 µM [falling, partial curve]
CCC(=O)Nc1cccc(NC(=O)c2cc3ccccc3o2)c1	1.26 µM [falling, full curve]
NC(=O)c1ccc(-c2nc(-c3ccc4c(c3)OCO4)c(-c3ccccn3)[nH]2)cc1	15.8 µM [falling, partial curve]
COc1ccc(CNc2ncnc3c2cnn3-c2ccc(Cl)cc2)cc1	3.98 µM [rising, partial curve, poor fit]
COc1ccc(Nc2ccc3cc(S(=O)(=O)N4CCCC4)ccc3n2)cc1OC	0.794 µM [rising, full curve]
N#Cc1nc(-c2ccco2)oc1NCCc1ccccc1	0.794 µM [rising, full curve, poor fit]
Cc1cc(N2CCN(C)CC2)nc2ccc(NC(=O)Nc3ccc(F)cc3F)cc12	20 µM [falling, partial curve]
COc1ccc(S(=O)(=O)N2CC(O)CC2C(=O)OCC(=O)Nc2ccc(Cl)cn2)cc1 (stereo unspecified)	5.01 µM [falling, partial curve]
Cc1ccc2[nH]c(=O)c3cc(C(=O)NCc4cccc(Cl)c4)sc3c2c1	31.6 µM [falling, single point]
COc1ccccc1-c1noc(CSc2nnc(-c3ccccc3)n2-c2ccc(C)c(C)c2)n1	15.8 µM [falling, partial curve]
CC(=O)c1ccc(NC(=O)CSc2nc(-c3ccccc3C)nc3c2c(=O)n(C)c(=O)n3C)cc1	0.398 µM [falling, full curve]
CCOC(=O)c1c(C)oc2nc(C)nc(N(C)Cc3ccccc3)c12	15.8 µM [falling, single point]
O=C(CSc1ncc(-c2ccc(Cl)cc2)[nH]1)Nc1ccccc1F	3.98 µM [rising, single point]
Cc1ccc(S(=O)(=O)N2CCCC2C(=O)Nc2ccc(Br)cc2)cc1 (stereo unspecified)	15.8 µM [falling, single point]
O=C(C1CCCN(S(=O)(=O)c2cccc3nonc23)C1)N1CCN(c2cccc(C(F)(F)F)c2)CC1 (stereo unspecified)	15.8 µM [falling, partial curve]

Among those listed so far, two have a cyano group.
SMILES	AC50
Cc1cccc(CSc2nc(-c3cccs3)ccc2C#N)c1	0.0631 µM [rising, full curve, poor fit]
N#Cc1nc(-c2ccco2)oc1NCCc1ccccc1	0.794 µM [rising, full curve, poor fit]

Going on with the list.

SMILES	AC50
O=C(c1cc(-c2cccs2)on1)N1CCN(c2ccccc2)CC1	0.1 µM [falling, full curve]
COc1ccccc1N1CCN(c2c(CN3CCCC3)c(=O)oc3ccccc23)CC1	5.01 µM [falling, partial curve]
COC(=O)c1ccc(COC(=O)c2c(C)nn(Cc3ccccc3Cl)c2Cl)o1	15.8 µM [falling, partial curve]
Cc1ccc(-n2nnnc2SCC(=O)N2CCc3ccccc3C2)cc1	31.6 µM [falling, single point]
O=C(C1CC1)N1CCc2cc(S(=O)(=O)NCCC3=CCCCC3)ccc21	15.8 µM [falling, partial curve]
Cc1ccc(OCC(=O)N(Cc2nc(-c3ccccc3)no2)C(C)C)cc1C	39.8 µM [falling, partial curve]
CCCOc1ccc(C(=O)N2CCN(c3ccc(N)cc3Cl)CC2)cc1	25.1 µM [falling, single point]
Cc1ccc(S(=O)(=O)N2CCCc3cc(NS(=O)(=O)c4ccccc4)ccc32)cc1	39.8 µM [falling, single point]
COC(=O)c1ccc([C@H]2Nc3ccc(S(=O)(=O)Nc4ccc(F)cc4)cc3[C@H]3C=CC[C@H]32)cc1	15.8 µM [falling, partial curve]
CCC(=O)N1c2ccccc2C(C)(c2ccccc2)CC1(C)C (stereo unspecified)	10 µM [falling, partial curve]
CC(C)(C)OC(=O)N1CCC(c2c(C(=O)NCc3ccccc3)cnn2-c2ccc(F)cc2)CC1	12.6 µM [falling, partial curve]
Cc1ccc(NC(=O)c2cc(S(=O)(=O)N3CCCCCC3)ccc2F)cc1F	1.26 µM [falling, full curve]
CC(C)Oc1ccc(NC(=O)c2cc3ccccc3o2)cc1	25.1 µM [falling, single point]
C/C(N)=C(/C#N)C(=O)CSc1nnnn1-c1ccc(C)cc1C	12.6 µM [falling, partial curve]
COc1ccc(CCNc2oc(COc3cccc(C)c3)nc2C#N)cc1OC	20 µM [falling, partial curve]
Cc1sc2c(c1C)c(=O)n(Cc1ccccc1)c(=O)n2CC(=O)N(C)c1ccccc1	15.8 µM [falling, partial curve]
CCCNC(=O)c1cnn2c(C(F)F)cc(-c3ccccc3)nc12	39.8 µM [falling, single point]
O=C(COc1cccc(Cl)c1)N1CCC(c2nc3ccccc3o2)CC1	31.6 µM [falling, single point]
Cc1nc2c(-c3ccccc3)c(C)nn2c(C)c1CCC(=O)NCCc1ccccc1	39.8 µM [falling, single point]
CC(C)c1ccc(NC(=O)N2CCN(c3ccc(Cl)c(Cl)c3)CC2)cc1	5.01 µM [falling, partial curve]
